# Structures can show the parent of a compound that is named as a salt. Some results were stated once for a whole list of compounds, not compound by compound.
# Key:
# TNF-α = experiment: Induction of TNF-α using fresh human whole blood (WB); format: cell-based; conditions: three donors, overnight incubation, cytokine released as % of 2 μM resiquimod control
# Description: (§1) Assay for the Induction of Interferon-α and TNF-α using Fresh Human Whole Blood (WB)
# (§2) Compounds were prepared at 100× required concentration in DMSO in flat-bottom microtitre plates at a volume of 1.5 μL. Columns 1-10 contained a 1 in 4 serial dilution of the test compound. Included on each plate was a serial dilution of the TLR7/8 agonist resiquimod as a standard and Column 11 contained 1.5 μl of 200 μM resiquimod (giving a 2 μM final concentration, used to define the approximate maximal response to resiquimod). Each compound was assayed in duplicate for each donor.
# (§3) Incubation and Assays for Interferon-α and TNF-α
# (§4) Blood samples from three human donors were collected into sodium heparin (10 U/ml). 150 μl of whole Blood was dispensed into Col 1 to 11 of assay plates containing 1.5 μl of test compound or standard in DMSO. Plates were placed in an incubator overnight (37° C., 95% air, 5% CO2). Following the overnight incubation, plates were removed from the incubator & mixed on an orbital shaker for approximately 1 minute. 100 μl of 0.9% saline was added to each well and the plates mixed again on an orbital shaker. Plates were then centrifuged (2500 rpm, 10 mins), after which a sample of plasma was removed using a Biomek FX and assayed for both IFN-α and TNF-α using the MSD (Mesoscale Discovery) electrochemiluminescence assay platform. The IFN-α assay was carried out similarly to that described above. The TNF-α assay was carried out as per kit instructions (Cat No K111BHB).
# (§5) Cytokine released was expressed as a percentage of the 2 μM resiquimod control (column 11). This percentage was plotted against compound concentration and the pEC50 for the response determined by non-linear least squares curve fitting. For the IFN-α responses, generally a 4 parameter logistic model was selected. For the TNF responses where a clear maximum response was obtained (i.e. a well defined plateau in the response was observed) then a 4 parameter model was generally used. If the upper asymptote of the curve wasn't well defined then the curve fitting was generally constrained to a maximal response of 100% (i.e. to the response to 2 μM resiquimod) or to the response of the highest concentration tested if this was greater than the resiquimod response. Some curves were bell shaped for one or both cytokines and the cytokine data on the down slope of the bell shaped response (i.e. concentrations above those giving the maximal response) were generally excluded from the fit, usually with the exception of the concentration immediately above the peak response. Curve fitting thus concentrated on the up slope of the dose response curve.
# Interferon-α = experiment: Induction of Interferon-α using fresh human whole blood (WB); format: cell-based; conditions: three donors, overnight incubation, cytokine released as % of 2 μM resiquimod control
# Description: as §1, §2, §3, §4, §5
Compound,mean pEC50 for TNF-α (TNF-α),mean pEC50 for IFNα (Interferon-α),further results
"CCCCc1nc(N)c2[nH]nc(CCCCCCN3CCCC3)c2n1.Cl [Example 24, 5-Butyl-3-(6-(pyrrolidin-1-yl)hexyl)-1H-pyrazolo[4,3-d]pyrimidin-7-amine hydrochloride]",≤ 5.4,≥ 5.9,
"CCCCc1nc(N)c2[nH]nc(CCCCCCN3CCCC3)c2n1 [Example 23, 5-Butyl-3-(6-(pyrrolidin-1-yl)hexyl)-1H-pyrazolo[4,3-d]pyrimidin-7-amine methanesulfonate]",,,mean pEC50 for TNF-α (TNF-α; methanesulfonate): ≤ 5.4; mean pEC50 for IFNα (Interferon-α; methanesulfonate): ≥ 5.9
"CCCCc1nc(N)c2[nH]nc(CCCCCCN3CCCC3)c2n1 [Example 19, 5-Butyl-3-(6-(pyrrolidin-1-yl)hexyl)-1H-pyrazolo[4,3-d]pyrimidin-7-amine maleate]",,,mean pEC50 for TNF-α (TNF-α; maleate): ≤ 5.4; mean pEC50 for IFNα (Interferon-α; maleate): ≥ 5.9
"CCCCc1nc(N)c2[nH]nc(CCCCCCN3CCCC3)c2n1 [Example 20, 5-Butyl-3-(6-(pyrrolidin-1-yl)hexyl)-1H-pyrazolo[4,3-d]pyrimidin-7-amine hemimaleate]",≤ 5.4,≥ 5.9,
